Measured values taken from publication PMC7819943, “Rice protein-binding microarrays: a tool to detect cis-acting elements near promoter regions in rice”.
The list shows a part of the results.

Each sequence was assayed against T1, OsSMF1 (Oryza sativa, UniProt Q6ZLB0 1-436) (assay: protein-binding microarray (RPBM); PBS, 2% BSA, 51.3 ng/ul salmon testes DNA, 50 uM zinc acetate, 200 nM TF, 25 C, 1 h; high values mean tight binding). Settings: protein: recombinant; tags: N-terminal polyhistidine and DsRed monomer fusion (pET32a); chain copies: 2; label: CyDye5-dUTP incorporated in the synthesized complementary strand; 3' TTTTT single-stranded linker to array surface; dsDNA, one strand shown.
T1 sequence: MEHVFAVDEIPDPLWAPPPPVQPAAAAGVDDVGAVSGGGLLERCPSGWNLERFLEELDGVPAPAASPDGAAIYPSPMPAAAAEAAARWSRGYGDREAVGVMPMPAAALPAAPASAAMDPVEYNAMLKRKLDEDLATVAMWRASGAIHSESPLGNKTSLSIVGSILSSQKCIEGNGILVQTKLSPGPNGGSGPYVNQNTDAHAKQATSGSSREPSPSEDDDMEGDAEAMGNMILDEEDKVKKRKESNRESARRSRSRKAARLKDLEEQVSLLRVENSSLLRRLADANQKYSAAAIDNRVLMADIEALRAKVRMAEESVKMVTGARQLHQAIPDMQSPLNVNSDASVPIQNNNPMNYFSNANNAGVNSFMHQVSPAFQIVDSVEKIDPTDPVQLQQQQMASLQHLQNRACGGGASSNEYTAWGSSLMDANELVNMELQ
How it was run: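 The binding signal is fluorescence intensity per feature, in arbitrary units, read on an Axon 4000B scanner. Polyhistidine- and DsRed-tagged transcription factors (N-terminal fusions) from E. coli BL21-CodonPlus were purified on Ni–NTA and applied at 200 nM for 1 h at 25 °C to a double-stranded, BSA-blocked custom Agilent array in buffer with 50 µM zinc acetate.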

| Sequence | binding signal |
| --- | --- |
| ATCCTCCATCCCGACTTCCGGGGAGCCAAGCACCATGGGTCGGAGTCACCTAGTGCAG | 31900 fluorescence intensity (a.u.) |
| CAGCTACAACGTGGAATAGTGTCAGCGACCTAACACAGTACGGAGTCACCTAGTGCAG | 5250 fluorescence intensity (a.u.) |
| ATACTGGACGATCTCACCACCCGCCTCGACTCCCTGTCAGCGGAGTCACCTAGTGCAG | 3430 fluorescence intensity (a.u.) |
| GAACGCCGAGATCACGCAACCTTGCGCCAGCGCCGCTACTCGGAGTCACCTAGTGCAG | 3190 fluorescence intensity (a.u.) |
| CAGATCAAATCCGACGGCCAGAAACGCATCGGAGCGCTGACGGAGTCACCTAGTGCAG | 3200 fluorescence intensity (a.u.) |
| AATTACGGATACTTTGCTGATACGTATTGATACGCCCATACGGAGTCACCTAGTGCAG | 3500 fluorescence intensity (a.u.) |
| CCTCCCGAGCCCCGGCAACAAGCTCGCCACCGCAGCGCATCGGAGTCACCTAGTGCAG | 4090 fluorescence intensity (a.u.) |
| TCTCGCAACGTGTTTTGTGCCAGCCAAGCTCCAGCGACCCCGGAGTCACCTAGTGCAG | 3160 fluorescence intensity (a.u.) |
| CACGTTGACTCAACAGCCACGTAGGATAAAACCGGAATTACGGAGTCACCTAGTGCAG | 12600 fluorescence intensity (a.u.) |
| CACGTGAAGAGATTGTGTGGCGTAGCATGATATCCTTGCGCGGAGTCACCTAGTGCAG | 21600 fluorescence intensity (a.u.) |
| ACGCAACGCAACGCAAGGCGACACTGCGCCTCGGGGAGTGCGGAGTCACCTAGTGCAG | 3140 fluorescence intensity (a.u.) |
| CCCAGCGGCTTTCCCATCGTCGCCGGCGGCCTGGAGCTCCCGGAGTCACCTAGTGCAG | 3450 fluorescence intensity (a.u.) |
| TCCCCTCTCTGTTGTCATCGTCTTCCTTTCCTTTCCTTTCCGGAGTCACCTAGTGCAG | 3600 fluorescence intensity (a.u.) |
| CCGACATCGACGACAACCACGTCGGCATCGACGACAACAGCGGAGTCACCTAGTGCAG | 8050 fluorescence intensity (a.u.) |
| TCAATTGCCGTGCCACGCGGTGCCGTGCCTCTGCCTCCCTCGGAGTCACCTAGTGCAG | 5520 fluorescence intensity (a.u.) |
| AACAGTTGAAATAAGGTAAACTCGGTGGCATATGATAGATCGGAGTCACCTAGTGCAG | 3360 fluorescence intensity (a.u.) |
| TATAATAAAGTAACATAAAAGTTTGGATGTATGAAAATCTCGGAGTCACCTAGTGCAG | 38800 fluorescence intensity (a.u.) |
| TCATACTAGAATATGTCACATCCAGTCATAGATTCGTTTTCGGAGTCACCTAGTGCAG | 5350 fluorescence intensity (a.u.) |
| CACTAAAGTCAAACCCCATGTGTAACTGCTCACACTCTTTCGGAGTCACCTAGTGCAG | 3400 fluorescence intensity (a.u.) |
| ACCTCTGATTGCGTCATTCCATTTCCATGGATTGCTCGATCGGAGTCACCTAGTGCAG | 7040 fluorescence intensity (a.u.) |
| AACCTACTATTAGCCCGTCCAGGTCATCACAATCTGAGCTCGGAGTCACCTAGTGCAG | 8060 fluorescence intensity (a.u.) |

Given bar-delimited: part of the list above.
Sequence | binding signal
CACGTGAAGAGATTGTGTGGCGTAGCATGATATCCTTGCGCGGAGTCACCTAGTGCAG | 21600 fluorescence intensity (a.u.)
ACGCAACGCAACGCAAGGCGACACTGCGCCTCGGGGAGTGCGGAGTCACCTAGTGCAG | 3140 fluorescence intensity (a.u.)

The list goes on:

| Sequence | binding signal |
| --- | --- |
| TTCCAATCACATTCTTAGTCAACACCATCCATGCTGTCGACGGAGTCACCTAGTGCAG | 3940 fluorescence intensity (a.u.) |
| TGCGCGTGGCTGAGGTAAACCATGACACATTAGTGCTGGACGGAGTCACCTAGTGCAG | 4570 fluorescence intensity (a.u.) |
| ATCGGACCACACGTGCTGCCTCCTCCGCGACACGCAACGTCGGAGTCACCTAGTGCAG | 3710 fluorescence intensity (a.u.) |
| TTGATACAATAAGTAGAAGTGACGCGACAAATAATTATTTCGGAGTCACCTAGTGCAG | 3230 fluorescence intensity (a.u.) |
| ACGCTCAATTATTCCGTGGCCACTAAGCTAAGCAACTCTGCGGAGTCACCTAGTGCAG | 8520 fluorescence intensity (a.u.) |
| AAGTTTGGGCCGCAGGGCCCACAATAGAGGATGACACGGTCGGAGTCACCTAGTGCAG | 3620 fluorescence intensity (a.u.) |
| CGCGAGTGTCCGATGACATCATATGTACGATGGCAAGCATCGGAGTCACCTAGTGCAG | 3710 fluorescence intensity (a.u.) |
| CATTCTCGGGCTGTCTGAGCTGCCACCTAAGTTAAGGTAACGGAGTCACCTAGTGCAG | 3260 fluorescence intensity (a.u.) |
| GCCGACTCTTACTCCTCCGCCCACTCACCACGCGCGCTGCCGGAGTCACCTAGTGCAG | 3650 fluorescence intensity (a.u.) |
| GAGGTAGGATGGGGTGAGCCGACGGAACTGCTGACGGAATCGGAGTCACCTAGTGCAG | 3250 fluorescence intensity (a.u.) |
| GCGCCCACCCAATAGGACCACGCCACGTCACCGCCTACGGCGGAGTCACCTAGTGCAG | 15900 fluorescence intensity (a.u.) |
| ATTCACAATGTAATAGGACGGACACGTCATGACAGAAGAACGGAGTCACCTAGTGCAG | 5700 fluorescence intensity (a.u.) |
| GCATACGATGGAGATATTGTGTACGTCTGGGATGTGGAGTCGGAGTCACCTAGTGCAG | 5520 fluorescence intensity (a.u.) |
| CATCAAGGAGGGATGGTGACACAATCGTTTATACTGGTTCCGGAGTCACCTAGTGCAG | 4440 fluorescence intensity (a.u.) |
| ACGGTCACGGTCCGGCCGCTCTACACGTACGTAGTACGTGCGGAGTCACCTAGTGCAG | 25100 fluorescence intensity (a.u.) |
| CTAGCGGCTTCCTCTCCATGCGCCAGGGCCTCGACACCGCCGGAGTCACCTAGTGCAG | 3190 fluorescence intensity (a.u.) |
| GGAGATTGGACCCCGCCGCATCTCCACGTCTCCTTCCGCCCGGAGTCACCTAGTGCAG | 5000 fluorescence intensity (a.u.) |
| ACAGACTCCGTCTCGGAGACTCTCCCGCTGACTGACACCTCGGAGTCACCTAGTGCAG | 3320 fluorescence intensity (a.u.) |
| CGGACTCCCATATCAAAATTTATTAAGACTCTGCATGCCTCGGAGTCACCTAGTGCAG | 13800 fluorescence intensity (a.u.) |
| ATGATGCTGGATTGCTGGATACTGCATCAACATCATTAAGCGGAGTCACCTAGTGCAG | 44500 fluorescence intensity (a.u.) |
| ACCTAATCCCACAGCTGGTCGCGACGTGGTCTGAAAACGTCGGAGTCACCTAGTGCAG | 3540 fluorescence intensity (a.u.) |
